# Results published in the supplement of paper PMC4962491.
# Counter-ions that a name gives are not always drawn. ± gives the standard deviation of the averaged measurements. The entries are a selection whose mix differs from that of the whole data set. Most values lie within the scatter of the assay; repeated measurements hardly agree.
# Test system: FaDu
# Assay: mitochondrial oxygen consumption rate normalised to cell number, Z score over the library; higher = higher oxygen consumption (negative = OCR reduction)
# Conditions: treatment time 24 h, assay medium: 5 mM galactose, 5 mM pyruvate, 4 mM glutamine
# Protocol: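 Primary screen: FaDu cells were incubated 24 h with Pharmakon 1600 / TDI oncology set compounds at 2 or 10 uM. Mitochondrial-specific OCR (basal minus 2 uM antimycin A) was measured on a Seahorse XF96 in assay medium with 5 mM galactose, 5 mM pyruvate and 4 mM glutamine, then corrected for Hoechst cell number and expressed as a Z score […]. Compounds that cut cell number by >66% were excluded. Two repeats.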
structure (smiles),measurement,setting,value
Cc1ccc(Nc2c(F)cccc2Cl)c(CC(=O)O)c1,mitochondrial oxygen consumption rate normalised,2 µM,1.65 ± 2
CN1CCc2c(c3ccccc3n2Cc2ccccc2)C1,mitochondrial oxygen consumption rate normalised,2 µM,-0.453 ± 0.29
Fc1ccc(C(c2ccc(F)cc2)N2CCN(C/C=C/c3ccccc3)CC2)cc1,mitochondrial oxygen consumption rate normalised,2 µM,1.02 ± 0.067
CCCCOc1ccc(OCCCN2CCOCC2)cc1,mitochondrial oxygen consumption rate normalised,2 µM,0.0446 ± 0.25
same,mitochondrial oxygen consumption rate normalised,10 µM,-0.434 ± 0.23
CC1CCc2cc(F)cc3c(=O)c(C(=O)O)cn1c23 (centres undefined),mitochondrial oxygen consumption rate normalised,2 µM,0.976 ± 0.58
CC(C)c1nc(CN(C)C(=O)N[C@H](C(=O)N[C@@H](Cc2ccccc2)C[C@H](O)[C@H](Cc2ccccc2)NC(=O)OCc2cncs2)C(C)C)cs1,mitochondrial oxygen consumption rate normalised,2 µM,-0.113 ± 0.047
CC(=O)Oc1cccc(C(=O)O)c1OC(C)=O,mitochondrial oxygen consumption rate normalised,2 µM,0.0307 ± 0.068
CC(C)[C@H]1CC[C@H](C(=O)N[C@H](Cc2ccccc2)C(=O)O)CC1,mitochondrial oxygen consumption rate normalised,2 µM,-0.405 ± 0.13
Nc1nc(N)nc(-c2cc(Cl)ccc2Cl)n1,mitochondrial oxygen consumption rate normalised,2 µM,-0.693 ± 0.11
S=P(N1CC1)(N1CC1)N1CC1 [Thiotepa],mitochondrial oxygen consumption rate normalised,2 µM,0.649 ± 0.12
S=P(N1CC1)(N1CC1)N1CC1,mitochondrial oxygen consumption rate normalised,2 µM,0.642 ± 1.7
NS(=O)(=O)c1cc2c(cc1C(F)(F)F)NC(Cc1ccccc1)NS2(=O)=O (centres undefined),mitochondrial oxygen consumption rate normalised,2 µM,0.422 ± 0.46
CC(CN1c2ccccc2Sc2ccccc21)N(C)C (centres undefined),mitochondrial oxygen consumption rate normalised,2 µM,-0.132 ± 0.82
O=C(c1ccc(OCCN2CCCCC2)cc1)c1c(-c2ccc(O)cc2)sc2cc(O)ccc12,mitochondrial oxygen consumption rate normalised,2 µM,-0.222 ± 0.26
same,mitochondrial oxygen consumption rate normalised,10 µM,-0.0851 ± 0.4
O=C(c1ccc(OCCN2CCCCC2)cc1)c1c(-c2ccc(O)cc2)sc2cc(O)ccc12 [Raloxifene HCl],mitochondrial oxygen consumption rate normalised,2 µM,0.682 ± 0.39
same,mitochondrial oxygen consumption rate normalised,10 µM,-0.567 ± 1.1
CCn1cc(C(=O)O)c(=O)c2cc(F)c(N3CCNCC3)cc21,mitochondrial oxygen consumption rate normalised,2 µM,0.462 ± 0.077
CC1(C)S[C@@H]2[C@H](N3C(=O)[C@@H](c4ccccc4)NC3(C)C)C(=O)N2[C@H]1C(=O)O,mitochondrial oxygen consumption rate normalised,2 µM,-0.0969 ± 0.94
CCOC(=O)C1=C(C)NC(C)=C(C(=O)OC)C1c1cccc([N+](=O)[O-])c1 (centres undefined),mitochondrial oxygen consumption rate normalised,2 µM,0.629 ± 1.6
CNC(=O)c1c(I)c(NC(C)=O)c(I)c(C(=O)O)c1I,mitochondrial oxygen consumption rate normalised,2 µM,1.05 ± 0.82
same,mitochondrial oxygen consumption rate normalised,10 µM,-0.0805 ± 0.4
COC1=CC(=O)C[C@@H](C)[C@]12Oc1c(Cl)c(OC)cc(OC)c1C2=O,mitochondrial oxygen consumption rate normalised,2 µM,0.58 ± 0.19
CCC(=O)NCC[C@@H]1CCc2ccc3c(c21)CCO3,mitochondrial oxygen consumption rate normalised,2 µM,0.469 ± 0.012
same,mitochondrial oxygen consumption rate normalised,10 µM,-0.125 ± 0.067
CN(C)CCC(c1ccc(Cl)cc1)c1ccccn1 (centres undefined),mitochondrial oxygen consumption rate normalised,2 µM,0.274 ± 0.57
OCC(O)CN1CCN(c2ccccc2)CC1 (centres undefined),mitochondrial oxygen consumption rate normalised,2 µM,1.19 ± 1.1
Cc1onc(-c2ccccc2)c1C(=O)N[C@@H]1C(=O)N2[C@@H]1SC(C)(C)[C@@H]2C(=O)O,mitochondrial oxygen consumption rate normalised,2 µM,0.231 ± 0.17
CCCC(CCC)C(=O)O,mitochondrial oxygen consumption rate normalised,2 µM,-0.322 ± 0.43
CN(C)CCCC1(c2ccc(F)cc2)OCc2cc(C#N)ccc21 (centres undefined),mitochondrial oxygen consumption rate normalised,2 µM,0.53 ± 0.18
Cn1c(=O)c2c(ncn2C)n(C)c1=O,mitochondrial oxygen consumption rate normalised,2 µM,-0.331 ± 0.31
O=C([O-])C(O)[C@H](O)[C@@H](O)[C@H](O)[C@H](O)CO.O=C([O-])C(O)[C@H](O)[C@@H](O)[C@H](O)[C@H](O)CO.[Ca+2] (some centres undefined),mitochondrial oxygen consumption rate normalised,2 µM,0.103 ± 0.48
Cc1c(OCC(F)(F)F)ccnc1C[S+]([O-])c1nc2ccccc2[nH]1 (centres undefined),mitochondrial oxygen consumption rate normalised,2 µM,-0.118 ± 0.7
CC(C)(C)NCC(O)c1ccc(O)c(CO)c1 (centres undefined),mitochondrial oxygen consumption rate normalised,2 µM,0.429 ± 1
Cn1c(=O)c2[nH]c(Br)nc2n(C)c1=O,mitochondrial oxygen consumption rate normalised,2 µM,-0.947 ± 0.073
same,mitochondrial oxygen consumption rate normalised,10 µM,0.142 ± 0.29
COc1ccc2cc1Oc1ccc(cc1)C[C@H]1c3c(cc4c(c3Oc3cc5c(cc3OC)CCN(C)[C@@H]5C2)OCO4)CCN1C,mitochondrial oxygen consumption rate normalised,2 µM,-1.42 ± 1.3
CC(O)CC(C)(C)O (centres undefined),mitochondrial oxygen consumption rate normalised,2 µM,0.391 ± 0.11
CCOC(=O)c1ccc(O)cc1,mitochondrial oxygen consumption rate normalised,2 µM,0.644 ± 2.1
COC(=O)Nc1nc2cc(C(=O)c3ccc(F)cc3)ccc2[nH]1,mitochondrial oxygen consumption rate normalised,2 µM,0.298 ± 0.3
same,mitochondrial oxygen consumption rate normalised,10 µM,0.265 ± 0.4
OC[C@H]1O[C@H](O[C@H]2[C@H](O)[C@@H](O)C(O)O[C@@H]2CO)[C@H](O)[C@@H](O)[C@@H]1O (some centres undefined),mitochondrial oxygen consumption rate normalised,2 µM,0.67 ± 0.86
CN(C)CCC(c1ccccc1)c1ccccn1 (centres undefined),mitochondrial oxygen consumption rate normalised,2 µM,-0.215 ± 0.51
CC(C)CCC[C@@H](C)[C@H]1CC[C@H]2[C@@H]3CC=C4C[C@@H](O)CC[C@]4(C)[C@H]3CC[C@]12C,mitochondrial oxygen consumption rate normalised,2 µM,0.3432 ± 0.0023
same,mitochondrial oxygen consumption rate normalised,10 µM,-0.87 ± 0.089
COc1ccc2nc3cc(Cl)ccc3c(Nc3cc(CN4CCCC4)c(O)c(CN4CCCC4)c3)c2n1,mitochondrial oxygen consumption rate normalised,2 µM,-0.0714 ± 0.73
Nc1nc(=O)c2c([nH]1)NCC(CNc1ccc(C(=O)N[C@@H](CCC(=O)O)C(=O)O)cc1)N2C=O (some centres undefined),mitochondrial oxygen consumption rate normalised,2 µM,-0.707 ± 1
CCCCOc1ccc(CC(=O)NO)cc1,mitochondrial oxygen consumption rate normalised,2 µM,0.0165 ± 0.48
same,mitochondrial oxygen consumption rate normalised,10 µM,-0.625 ± 0.84
CC(=O)OC(C)C[N+](C)(C)C (centres undefined),mitochondrial oxygen consumption rate normalised,2 µM,0.171 ± 0.68
Oc1c(Cl)cc(Cl)cc1Sc1cc(Cl)cc(Cl)c1O,mitochondrial oxygen consumption rate normalised,2 µM,1.13 ± 0.9
C=CCc1ccccc1OCC(O)CNC(C)C (centres undefined),mitochondrial oxygen consumption rate normalised,2 µM,-0.001 ± 0.14
NC[C@H]1CC[C@H](C(=O)O)CC1,mitochondrial oxygen consumption rate normalised,2 µM,0.819 ± 0.34

# Reprinted at random: two entries already listed.
structure (smiles),measurement,setting,value
O=C(c1ccc(OCCN2CCCCC2)cc1)c1c(-c2ccc(O)cc2)sc2cc(O)ccc12 [Raloxifene HCl],mitochondrial oxygen consumption rate normalised,10 µM,-0.567 ± 1.1
Fc1ccc(C(c2ccc(F)cc2)N2CCN(C/C=C/c3ccccc3)CC2)cc1,mitochondrial oxygen consumption rate normalised,2 µM,1.02 ± 0.067
